Laboratory results reported in patent US6737247B2, “Imaging of enzymatic activity” (The General Hospital Corporation, priority 2000, dated 2004).
Some of these results come from one statement about several compounds together.

Tested on: peroxidase
Experiment: Magnetic resonance imaging of peroxidase-mediated conversion of paramagnetic substrates in tubes
Type: biochemical
Conditions: 0.1-0.2 mM substrate, volume 200 μl

Substance	amount of peroxidase producing clearly visible relaxation effects
hydroxytyraminyl-DOTA(Gd) [Substrate II]	above 1 ng
tyramine-[1,4,7,10-tetraazacyclododecane-N,N′,N″,N′″-tetraacetic acid, gadolinium salt] [Substrate I]	above 1 ng
